The supplement of paper PMC8728848
The other results are listed elsewhere or left out.

Legend:
Test in all cases: glycan array binding signal (z-score within array); higher = stronger binding
Settings in all cases: glycan notation: IUPAC condensed, linker removed
[1] = target: Fuc(a1-2)Gal6S(b1-3)GlcNAc6S
How it was run: (§1)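 The binding signal is a Z-score computed within each array and averaged over linkers. Arrays of the same protein sequence at different concentrations or buffers were also averaged together. Data originate from 3228 arrays in the Consortium for Functional Glycomics database, kept only where the protein sequence was available.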

Fuc(a1-2)Gal6S(b1-4)Glc = target: Fuc(a1-2)Gal6S(b1-4)Glc
How it was run: as §1

[2] = target: Fuc(a1-2)Gal6S(b1-4)Glc6S
How it was run: as §1

Fuc(a1-2)[Gal(a1-3)]Gal = target: Fuc(a1-2)[Gal(a1-3)]Gal
How it was run: as §1

[3] = target: Fuc(a1-2)[Gal(a1-3)]Gal(b1-3)GalNAc
How it was run: as §1

[4] = target: Fuc(a1-2)[Gal(a1-3)]Gal(b1-3)GalNAc(b1-3)Gal(a1-4)Gal(b1-4)Glc
How it was run: as §1

[5] = target: Fuc(a1-2)[Gal(a1-3)]Gal(b1-3)GlcNAc
How it was run: as §1

[6] = target: Fuc(a1-2)[Gal(a1-3)]Gal(b1-3)GlcNAc(b1-2)Man(a1-3)[Fuc(a1-2)[Gal(a1-3)]Gal(b1-3)GlcNAc(b1-2)Man(a1-6)]Man(b1-4)GlcNAc(b1-4)GlcNAc
How it was run: as §1

[7] = target: Fuc(a1-2)[Gal(a1-3)]Gal(b1-3)GlcNAc(b1-2)Man(a1-3)[Fuc(a1-2)[Gal(a1-3)]Gal(b1-3)GlcNAc(b1-2)Man(a1-6)]Man(b1-4)GlcNAc(b1-4)[Fuc(a1-6)]GlcNAc
How it was run: as §1

[8] = target: Fuc(a1-2)[Gal(a1-3)]Gal(b1-3)GlcNAc(b1-3)GalNAc
How it was run: as §1

[9] = target: Fuc(a1-2)[Gal(a1-3)]Gal(b1-3)GlcNAc(b1-6)GalNAc
How it was run: as §1

[10] = target: Fuc(a1-2)[Gal(a1-3)]Gal(b1-4)Glc
How it was run: as §1

[11] = target: Fuc(a1-2)[Gal(a1-3)]Gal(b1-4)GlcNAc
How it was run: as §1

[12] = target: Fuc(a1-2)[Gal(a1-3)]Gal(b1-4)GlcNAc(b1-2)Man
How it was run: as §1

[13] = target: Fuc(a1-2)[Gal(a1-3)]Gal(b1-4)GlcNAc(b1-2)Man(a1-3)[Fuc(a1-2)[Gal(a1-3)]Gal(b1-4)GlcNAc(b1-2)Man(a1-6)]Man(b1-4)GlcNAc(b1-4)GlcNAc
How it was run: as §1

[14] = target: Fuc(a1-2)[Gal(a1-3)]Gal(b1-4)GlcNAc(b1-2)Man(a1-3)[Fuc(a1-2)[Gal(a1-3)]Gal(b1-4)GlcNAc(b1-2)Man(a1-6)]Man(b1-4)GlcNAc(b1-4)[Fuc(a1-6)]GlcNAc
How it was run: as §1

[15] = target: Fuc(a1-2)[Gal(a1-3)]Gal(b1-4)GlcNAc(b1-3)GalNAc
How it was run: as §1

[16] = target: Fuc(a1-2)[Gal(a1-3)]Gal(b1-4)GlcNAc(b1-3)[Fuc(a1-2)[Gal(a1-3)]Gal(b1-4)GlcNAc(b1-6)]GalNAc
How it was run: as §1

[17] = target: Fuc(a1-2)[Gal(a1-3)]Gal(b1-4)GlcNAc(b1-6)GalNAc
How it was run: as §1

[18] = target: Fuc(a1-2)[Gal(a1-3)]Gal(b1-4)[Fuc(a1-3)]Glc
How it was run: as §1

[19] = target: Fuc(a1-2)[Gal(a1-3)]Gal(b1-4)[Fuc(a1-3)]GlcNAc
How it was run: as §1

[20] = target: Fuc(a1-2)[Gal(a1-3)]Gal(b1-4)[Fuc(a1-3)]GlcNAc(b1-3)GalNAc
How it was run: as §1

[21] = target: Fuc(a1-2)[Gal(a1-4)]Gal(b1-4)GlcNAc
How it was run: as §1

[22] = target: Fuc(a1-2)[GalNAc(a1-3)]Gal
How it was run: as §1

[23] = target: Fuc(a1-2)[GalNAc(a1-3)]Gal(b1-3)GalNAc(a1-3)[Fuc(a1-2)]Gal(b1-4)GlcNAc
How it was run: as §1

[24] = target: Fuc(a1-2)[GalNAc(a1-3)]Gal(b1-3)GalNAc(b1-3)Gal(a1-4)Gal(b1-4)Glc
How it was run: as §1

[25] = target: Fuc(a1-2)[GalNAc(a1-3)]Gal(b1-3)GlcNAc
How it was run: as §1

[26] = target: Fuc(a1-2)[GalNAc(a1-3)]Gal(b1-3)GlcNAc(b1-2)Man(a1-3)[Fuc(a1-2)[GalNAc(a1-3)]Gal(b1-3)GlcNAc(b1-2)Man(a1-6)]Man(b1-4)GlcNAc(b1-4)GlcNAc
How it was run: as §1

[27] = target: Fuc(a1-2)[GalNAc(a1-3)]Gal(b1-3)GlcNAc(b1-2)Man(a1-3)[Fuc(a1-2)[GalNAc(a1-3)]Gal(b1-3)GlcNAc(b1-2)Man(a1-6)]Man(b1-4)GlcNAc(b1-4)[Fuc(a1-6)]GlcNAc
How it was run: as §1

[28] = target: Fuc(a1-2)[GalNAc(a1-3)]Gal(b1-3)GlcNAc(b1-3)GalNAc
How it was run: as §1

[29] = target: Fuc(a1-2)[GalNAc(a1-3)]Gal(b1-3)GlcNAc(b1-6)GalNAc
How it was run: as §1

[30] = target: Fuc(a1-2)[GalNAc(a1-3)]Gal(b1-4)Glc
How it was run: as §1

[31] = target: Fuc(a1-2)[GalNAc(a1-3)]Gal(b1-4)GlcNAc
How it was run: as §1

[32] = target: Fuc(a1-2)[GalNAc(a1-3)]Gal(b1-4)GlcNAc(b1-2)Man
How it was run: as §1

[33] = target: Fuc(a1-2)[GalNAc(a1-3)]Gal(b1-4)GlcNAc(b1-2)Man(a1-3)[Fuc(a1-2)[GalNAc(a1-3)]Gal(b1-4)GlcNAc(b1-2)Man(a1-6)]Man(b1-4)GlcNAc(b1-4)GlcNAc
How it was run: as §1

[34] = target: Fuc(a1-2)[GalNAc(a1-3)]Gal(b1-4)GlcNAc(b1-2)Man(a1-3)[Fuc(a1-2)[GalNAc(a1-3)]Gal(b1-4)GlcNAc(b1-2)Man(a1-6)]Man(b1-4)GlcNAc(b1-4)[Fuc(a1-6)]GlcNAc
How it was run: as §1

[35] = target: Fuc(a1-2)[GalNAc(a1-3)]Gal(b1-4)GlcNAc(b1-3)Gal(b1-4)GlcNAc
How it was run: as §1

[36] = target: Fuc(a1-2)[GalNAc(a1-3)]Gal(b1-4)GlcNAc(b1-3)Gal(b1-4)GlcNAc(b1-3)Gal(b1-4)GlcNAc
How it was run: as §1

[37] = target: Fuc(a1-2)[GalNAc(a1-3)]Gal(b1-4)GlcNAc(b1-3)GalNAc
How it was run: as §1

[38] = target: Fuc(a1-2)[GalNAc(a1-3)]Gal(b1-4)GlcNAc(b1-3)[Fuc(a1-2)[GalNAc(a1-3)]Gal(b1-4)GlcNAc(b1-6)]GalNAc
How it was run: as §1

[39] = target: Fuc(a1-2)[GalNAc(a1-3)]Gal(b1-4)GlcNAc(b1-6)GalNAc
How it was run: as §1

[40] = target: Fuc(a1-2)[GalNAc(a1-3)]Gal(b1-4)[Fuc(a1-3)]GlcNAc
How it was run: as §1

[41] = target: Fuc(a1-2)[GalNAc(a1-3)]Gal(b1-4)[Fuc(a1-3)]GlcNAc(b1-3)GalNAc
How it was run: as §1

[42] = target: Fuc(a1-2)[GalNAc(a1-4)]Gal(b1-4)GlcNAc
How it was run: as §1

[43] = target: Fuc(a1-2)[GalNAc(b1-3)]Gal
How it was run: as §1

B1: CM2 (Cordyceps militaris) (protein)
chain: MEIAEQNVGKSCAIVNLIPPKEGSNIWTAKQVTIARNLPPNRGTGRHQIDWSFGPVKVTGYVDTTNWEIGVTVSIMGIDLGTVYGNLRDGVVLNVDLFLAKGQVRFYLKNGNEVWVHLSVEIRFDGKFEGDYKIITV
glycan array binding signal (z-score) [1]: 0.054
glycan array binding signal (z-score) (Fuc(a1-2)Gal6S(b1-4)Glc): -1.36
glycan array binding signal (z-score) [2]: -1.38
glycan array binding signal (z-score) (Fuc(a1-2)[Gal(a1-3)]Gal): -0.913
glycan array binding signal (z-score) [3]: 1.24
glycan array binding signal (z-score) [4]: -1.06
glycan array binding signal (z-score) [5]: -0.609
glycan array binding signal (z-score) [6]: 0.361
glycan array binding signal (z-score) [7]: -0.258
glycan array binding signal (z-score) [8]: 0.053
glycan array binding signal (z-score) [9]: -0.605
glycan array binding signal (z-score) [10]: 0.763
glycan array binding signal (z-score) [11]: -0.435
glycan array binding signal (z-score) [12]: 0.86
glycan array binding signal (z-score) [13]: -0.098
glycan array binding signal (z-score) [14]: -0.342
glycan array binding signal (z-score) [15]: 0.967
glycan array binding signal (z-score) [16]: -0.643
glycan array binding signal (z-score) [17]: -0.258
glycan array binding signal (z-score) [18]: -1.02
glycan array binding signal (z-score) [19]: 1.81
glycan array binding signal (z-score) [20]: 0.494
glycan array binding signal (z-score) [21]: 0.665
glycan array binding signal (z-score) [22]: 0.209
glycan array binding signal (z-score) [23]: -1.09
glycan array binding signal (z-score) [24]: 0.024
glycan array binding signal (z-score) [25]: 1.61
glycan array binding signal (z-score) [26]: 0.606
glycan array binding signal (z-score) [27]: 0.571
glycan array binding signal (z-score) [28]: 1.29
glycan array binding signal (z-score) [29]: -0.212
glycan array binding signal (z-score) [30]: 0.04
glycan array binding signal (z-score) [31]: -0.133
glycan array binding signal (z-score) [32]: -1.45
glycan array binding signal (z-score) [33]: 0.549
glycan array binding signal (z-score) [34]: 0.394
glycan array binding signal (z-score) [35]: -0.015
glycan array binding signal (z-score) [36]: 0.696
glycan array binding signal (z-score) [37]: -1.16
glycan array binding signal (z-score) [38]: -0.271
glycan array binding signal (z-score) [39]: -0.241
glycan array binding signal (z-score) [40]: -1.41
glycan array binding signal (z-score) [41]: 0.706
glycan array binding signal (z-score) [42]: 0.106
glycan array binding signal (z-score) [43]: -1.87
